According to article PMC7862700:
This is a selection; strong and weak results do not stand in their true shares. For some of these results: At the low end of the ranking the order means little. Some of the results follow. For some of these results: The source does not settle which construct or isoform was used.

How the values were obtained:
[1] = target: T1, ETS1 (UniProt P14921); assay: DAPPL (digital affinity profiling via proximity ligation, sequencing); settings: 10 mM Tris-HCl pH 7.5, 50 mM NaCl, 1 mM DTT, 4% glycerol, room temperature, 30 min; GST-TFs on glutathione beads, 16-mer random dsDNA library, 0.1% …; high values mean tight binding; double strand, one strand shown; scale: fold enrichment (6-mer frequency, TF over GST control)
T1 sequence: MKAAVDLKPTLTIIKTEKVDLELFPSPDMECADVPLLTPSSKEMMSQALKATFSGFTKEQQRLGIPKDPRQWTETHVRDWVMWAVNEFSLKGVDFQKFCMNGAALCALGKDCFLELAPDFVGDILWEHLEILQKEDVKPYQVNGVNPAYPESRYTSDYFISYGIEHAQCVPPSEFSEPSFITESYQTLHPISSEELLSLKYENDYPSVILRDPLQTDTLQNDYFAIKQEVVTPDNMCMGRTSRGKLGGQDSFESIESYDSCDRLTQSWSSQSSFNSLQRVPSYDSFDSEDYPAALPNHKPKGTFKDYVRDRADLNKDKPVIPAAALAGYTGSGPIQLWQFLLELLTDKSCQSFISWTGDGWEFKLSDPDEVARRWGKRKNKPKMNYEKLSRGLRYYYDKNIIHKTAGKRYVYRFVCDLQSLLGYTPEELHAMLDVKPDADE

[2] = target: T2, SPDEF (UniProt O95238); assay: as above; settings: 10 mM Tris-HCl pH 7.5, 50 mM NaCl, 1 mM DTT, 4% glycerol, room temperature, 30 min; GST-TFs on glutathione beads, 16-mer random dsDNA library, 0.1% …; high values mean tight binding; double strand, one strand shown; scale: fold enrichment (6-mer frequency, TF over GST control)
T2 sequence: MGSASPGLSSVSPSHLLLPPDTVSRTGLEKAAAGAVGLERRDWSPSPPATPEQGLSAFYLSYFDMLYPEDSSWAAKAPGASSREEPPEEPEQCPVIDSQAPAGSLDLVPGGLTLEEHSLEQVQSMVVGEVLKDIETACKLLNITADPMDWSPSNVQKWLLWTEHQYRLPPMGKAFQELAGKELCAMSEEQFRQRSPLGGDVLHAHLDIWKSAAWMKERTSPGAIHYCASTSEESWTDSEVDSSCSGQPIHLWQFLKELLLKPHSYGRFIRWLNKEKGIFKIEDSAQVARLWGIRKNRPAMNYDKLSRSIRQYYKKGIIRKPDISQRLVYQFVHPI

AGTTCT
binding signal [1]: 1.06 | binding signal [2]: 0.988

GGCCCT
binding signal [1]: 1.03 | binding signal [2]: 0.927

TTCGGC
binding signal [1]: 1.12 | binding signal [2]: 0.927

CGAGCA
binding signal [1]: 1.09 | binding signal [2]: 1.18

TGTCCG
binding signal [1]: 1.51 | binding signal [2]: 1.8

ACGCCT
binding signal [1]: 1.24 | binding signal [2]: 1.12

AAGCTG
binding signal [1]: 1.17 | binding signal [2]: 0.992

TGCACA
binding signal [1]: 1.06 | binding signal [2]: 1.21

GCGCCT
binding signal [1]: 1.12 | binding signal [2]: 0.946

TGACCC
binding signal [1]: 1.37 | binding signal [2]: 1.49

TCCTGT
binding signal [1]: 1.93 | binding signal [2]: 2.32

CGCTTA
binding signal [1]: 1.13 | binding signal [2]: 1.3

GGAAGT
binding signal [1]: 2.8 | binding signal [2]: 2.97

GCAACA
binding signal [1]: 1 | binding signal [2]: 0.957

ATTATC
binding signal [1]: 1.44 | binding signal [2]: 1.34

CCGGGT
binding signal [1]: 1.16 | binding signal [2]: 1.79

AGCTCG
binding signal [1]: 1.06 | binding signal [2]: 0.935

TCAATG
binding signal [1]: 1.06 | binding signal [2]: 1.12

TGCATG
binding signal [1]: 1.04 | binding signal [2]: 1.06

CCGAGC
binding signal [1]: 1.1 | binding signal [2]: 1.06

TCCTGG
binding signal [1]: 1.59 | binding signal [2]: 2.13

GACTTC
binding signal [1]: 2.35 | binding signal [2]: 2.13

GCCGAA
binding signal [1]: 1.07 | binding signal [2]: 0.887

TATTTG
binding signal [1]: 1.45 | binding signal [2]: 1.32

GTTCTG
binding signal [1]: 1.07 | binding signal [2]: 1

CACTCC
binding signal [1]: 1.26 | binding signal [2]: 1.2

AGCCTA
binding signal [1]: 1.03 | binding signal [2]: 0.963

CTACCC
binding signal [1]: 1.37 | binding signal [2]: 1.29

CTAGCA
binding signal [1]: 1.19 | binding signal [2]: 1.16

CATCAA
binding signal [1]: 1.05 | binding signal [2]: 0.964

GATAAT
binding signal [1]: 1.05 | binding signal [2]: 0.958

ACCTAG
binding signal [1]: 1 | binding signal [2]: 0.917

AGTAAA
binding signal [1]: 1.08 | binding signal [2]: 0.946

CGCACG
binding signal [1]: 1.11 | binding signal [2]: 0.94

AGTAGC
binding signal [1]: 0.982 | binding signal [2]: 0.904

ACCTGT
binding signal [1]: 1.04 | binding signal [2]: 0.949

TTAGCC
binding signal [1]: 1.08 | binding signal [2]: 1

GACCGG
binding signal [1]: 1.04 | binding signal [2]: 1.19

ACTAAT
binding signal [1]: 1.23 | binding signal [2]: 1.21

AAAAAC
binding signal [1]: 1.34 | binding signal [2]: 1.23

TTGTTG
binding signal [1]: 1.03 | binding signal [2]: 1.11
